{"source": "PubChem BioAssay AID1053208 (Peter MacCallum Cancer Centre, 2014)", "assay": "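Synthetic lethal interactions between gene loss and doxorubicin in osteosarcoma cells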 (primary screen)", "cell system": "mouse osteosarcoma cells, early-passage culture from an engineered mouse model of fibroblastic bone tumour", "reagent": "siRNA pool against mouse genes, 40 nM", "duration": "about 120 h (48 h before drug, then 72 h with drug)", "conditions": "doxorubicin 100 nM for 72 h, roughly 30-40% inhibitory dose", "detection": "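Luminescent ATP signal taken as viability with or without 100 nM doxorubicin for 72 h; mean of two wells set against non-targeting siRNA and turned into robust z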", "reading the numbers": "viability z-score with doxorubicin: higher = more viable cells under doxorubicin; viability z-score without drug: higher = more viable cells with knock-down alone", "call rule": "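Called active if knock-down leaves viability unchanged without drug (z within -2 to 2) but lowers it with doxorubicin (z at or under -2)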", "note": "The whole screen tested about 17,000 reagents; this is an unselected part. 788 of all reagents (4.7%) were called active. 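Calls rest on z-score classes alone; an extra cut-off of viability at most 70% of control was not applied to them.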 Further read-outs or replicates are left out here."}
{"gene": "Krt5 (GeneID 110308)", "combined z-score class": "no change with or without drug", "viability z-score with doxorubicin": -0.67, "viability z-score without drug": 0.84, "outcome": "inactive"}
{"gene": "Rexo1 (GeneID 66932)", "combined z-score class": "low cell count with doxorubicin only", "viability z-score with doxorubicin": -2.7, "viability z-score without drug": 0.51, "outcome": "active"}
{"gene": "Cd300lf (GeneID 246746)", "combined z-score class": "no change with or without drug", "viability z-score with doxorubicin": -0.22, "viability z-score without drug": -0.51, "outcome": "inactive"}
{"gene": "Slc13a4 (GeneID 243755)", "combined z-score class": "high cell count without drug only", "viability z-score with doxorubicin": 0.22, "viability z-score without drug": 2.02, "outcome": "inactive"}
{"gene": "Or2g25 (GeneID 258263)", "combined z-score class": "no change with or without drug", "viability z-score with doxorubicin": -1.35, "viability z-score without drug": -0.17, "outcome": "inactive"}
{"gene": "Perm1 (GeneID 74183)", "combined z-score class": "low cell count with doxorubicin only", "viability z-score with doxorubicin": -3.82, "viability z-score without drug": -1.18, "outcome": "active"}
{"gene": "Sox13 (GeneID 20668)", "combined z-score class": "low cell count with doxorubicin only", "viability z-score with doxorubicin": -2.25, "viability z-score without drug": -1.18, "outcome": "active"}
{"gene": "Kdm4b (GeneID 193796)", "combined z-score class": "no change with or without drug", "viability z-score with doxorubicin": 0.45, "viability z-score without drug": 0, "outcome": "inactive"}
{"gene": "Gca (GeneID 227960)", "combined z-score class": "no change with or without drug", "viability z-score with doxorubicin": 1.01, "viability z-score without drug": 0.51, "outcome": "inactive"}
{"gene": "Cmya5 (GeneID 76469)", "combined z-score class": "no change with or without drug", "viability z-score with doxorubicin": -1.12, "viability z-score without drug": 1.35, "outcome": "inactive"}
{"gene": "Pitpnc1 (GeneID 71795)", "combined z-score class": "high cell count without drug only", "viability z-score with doxorubicin": 0.9, "viability z-score without drug": 3.04, "outcome": "inactive"}
{"gene": "Cd320 (GeneID 54219)", "combined z-score class": "no change with or without drug", "viability z-score with doxorubicin": 0.11, "viability z-score without drug": 0.67, "outcome": "inactive"}
{"gene": "Nap1l4 (GeneID 17955)", "combined z-score class": "no change with or without drug", "viability z-score with doxorubicin": -1.57, "viability z-score without drug": -0.84, "outcome": "inactive"}
{"gene": "Mela (GeneID 17276)", "combined z-score class": "no change with or without drug", "viability z-score with doxorubicin": 1.8, "viability z-score without drug": 0.84, "outcome": "inactive"}
{"gene": "Dnal4 (GeneID 54152)", "combined z-score class": "no change with or without drug", "viability z-score with doxorubicin": -0.67, "viability z-score without drug": 0.34, "outcome": "inactive"}
{"gene": "St3gal4 (GeneID 20443)", "combined z-score class": "no change with or without drug", "viability z-score with doxorubicin": -1.8, "viability z-score without drug": -0.17, "outcome": "inactive"}
{"gene": "Xrcc1 (GeneID 22594)", "combined z-score class": "no change with or without drug", "viability z-score with doxorubicin": -1.12, "viability z-score without drug": -0.17, "outcome": "inactive"}
{"gene": "Rnf10 (GeneID 50849)", "combined z-score class": "low cell count with and without drug", "viability z-score with doxorubicin": -2.25, "viability z-score without drug": -2.19, "outcome": "inactive"}
{"gene": "Hsd3b2 (GeneID 15493)", "combined z-score class": "no change with or without drug", "viability z-score with doxorubicin": 0, "viability z-score without drug": 0, "outcome": "inactive"}
{"gene": "Rab1a (GeneID 19324)", "combined z-score class": "no change with or without drug", "viability z-score with doxorubicin": -0.9, "viability z-score without drug": -1.18, "outcome": "inactive"}
{"gene": "Smurf1 (GeneID 75788)", "combined z-score class": "no change with or without drug", "viability z-score with doxorubicin": -1.57, "viability z-score without drug": -0.17, "outcome": "inactive"}
{"gene": "Zhx1 (GeneID 22770)", "combined z-score class": "high cell count with and without drug", "viability z-score with doxorubicin": 2.59, "viability z-score without drug": 5.73, "outcome": "inactive"}
{"gene": "Cacna2d3 (GeneID 12294)", "combined z-score class": "no change with or without drug", "viability z-score with doxorubicin": -1.35, "viability z-score without drug": -0.34, "outcome": "inactive"}
{"gene": "Ndufaf7 (GeneID 73694)", "combined z-score class": "no change with or without drug", "viability z-score with doxorubicin": 0.9, "viability z-score without drug": 1.35, "outcome": "inactive"}
{"gene": "Npy (GeneID 109648)", "combined z-score class": "no change with or without drug", "viability z-score with doxorubicin": -1.12, "viability z-score without drug": 0.67, "outcome": "inactive"}
{"gene": "Or4c110 (GeneID 258451)", "combined z-score class": "no change with or without drug", "viability z-score with doxorubicin": -0.45, "viability z-score without drug": 0.34, "outcome": "inactive"}
{"gene": "Mapkap1 (GeneID 227743)", "combined z-score class": "no change with or without drug", "viability z-score with doxorubicin": 0.45, "viability z-score without drug": -1.85, "outcome": "inactive"}
{"gene": "Casp3 (GeneID 12367)", "combined z-score class": "no change with or without drug", "viability z-score with doxorubicin": 0.22, "viability z-score without drug": 0.51, "outcome": "inactive"}

Already shown: entries from further up.
{"gene": "St3gal4 (GeneID 20443)", "combined z-score class": "no change with or without drug", "viability z-score with doxorubicin": -1.8, "viability z-score without drug": -0.17, "outcome": "inactive"}
{"gene": "Xrcc1 (GeneID 22594)", "combined z-score class": "no change with or without drug", "viability z-score with doxorubicin": -1.12, "viability z-score without drug": -0.17, "outcome": "inactive"}
{"gene": "Rnf10 (GeneID 50849)", "combined z-score class": "low cell count with and without drug", "viability z-score with doxorubicin": -2.25, "viability z-score without drug": -2.19, "outcome": "inactive"}
